Consider 4 molecules from article PMC4161306, “Regulation of Arabidopsis Flowering by the Histone Mark Readers MRG1/2 via Interaction with CONSTANS to Modulate FT Expression” (PLoS Genetics, 2014).

Protein sequences, listed by entry. Tags and fused reporters are not part of them.
UniProt Q39057: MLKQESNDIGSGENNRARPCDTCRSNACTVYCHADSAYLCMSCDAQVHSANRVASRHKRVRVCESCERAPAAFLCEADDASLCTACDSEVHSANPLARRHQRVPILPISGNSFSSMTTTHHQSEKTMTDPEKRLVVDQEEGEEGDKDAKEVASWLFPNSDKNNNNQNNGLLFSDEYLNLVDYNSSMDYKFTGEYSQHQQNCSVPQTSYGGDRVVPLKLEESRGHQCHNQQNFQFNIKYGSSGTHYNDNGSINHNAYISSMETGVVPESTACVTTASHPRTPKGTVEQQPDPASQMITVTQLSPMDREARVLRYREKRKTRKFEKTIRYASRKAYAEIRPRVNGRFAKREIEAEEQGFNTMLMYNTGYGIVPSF

In test [1] the target is GST-fused CONSTANS (CO) (Arabidopsis thaliana) (UniProt Q39057). The test can be described thus: pull-down; GST-fused CO (or GST alone) with His-tagged MRG2, MRG2C or MRG2N, purified from E. coli; protocol of ref. 51; both purified.
Substrate in test [2]: CO tagged with split YFP (Arabidopsis thaliana) (UniProt Q39057)
Nature of the test: split reporter; BiFC with split YFP in Nicotiana benthamiana leaves co-infiltrated with Agrobacterium; confocal microscopy 2-3 days after infiltration.

The target of test [3] is MYC-CO (Arabidopsis thaliana) (UniProt Q39057). Nature of the test: co-IP; total protein extracts of 14-day-old transgenic Arabidopsis seedlings expressing YFP-MRG2 (estrogen-induced) and MYC-CO; IP with anti-MYC affinity gel, blot with anti-GFP.

No constants are given. Whether binding was seen depends on the method and setting. For some of these results: Binding seen in cells or lysates may run through a third protein. Some entries that bind do so weakly or less than the wild type. Where a sequence is shown, tags or fusion partners need not be part of it.

B1: N-terminal His-tagged chromodomain of MRG2 (His-MRG2N) (domain or fragment, UniProt Q4V3E2 1-123)
chain: MGSPNAAAETDLTTDDFIGDTRRDSGSDTETNTDCDGEDLPLLLLPAPPGHFEEGERVLAKHSDCFYEAKVLKVEFKDNEWKYFVHYIGWNKSWDEWIRLDCLLKHSDENIEKQKEQGLKQQG
As for B1, the binding entry in test [1] is on record as “no binding”.

B2: MRG2 tagged with split YFP (protein, UniProt Q4V3E2 1-327)
chain: MGSPNAAAETDLTTDDFIGDTRRDSGSDTETNTDCDGEDLPLLLLPAPPGHFEEGERVLAKHSDCFYEAKVLKVEFKDNEWKYFVHYIGWNKSWDEWIRLDCLLKHSDENIEKQKEQGLKQQGIKSAMAWKVSKMKPRSPNVARGRKRKQDSVDTEKNVLPSDNLLSFNIPPALRKQLLDDFEFVTQMQKLVQLPRSPNVDGILKKYIDSQMKKHGRVTDSLEEILKGLRCYFDKALPVMLLYNNERKQYEESVSGGVSPSTVYGAEHLLRLFVKLPELLVHVNMAEETLKELQDNFVDILRFLRKNQSVLFVSTYKAVEEMEKKEG
Take B2: the binding entry in test [2] is listed as “binds”.

B3: YFP-MRG2 (protein, UniProt Q4V3E2 1-327)
chain: B2 chain
Turning to B3, in test [3], the binding result is “binds”.

B4: MRG2C tagged with split YFP (domain or fragment, UniProt Q4V3E2 162-327)
chain: SDNLLSFNIPPALRKQLLDDFEFVTQMQKLVQLPRSPNVDGILKKYIDSQMKKHGRVTDSLEEILKGLRCYFDKALPVMLLYNNERKQYEESVSGGVSPSTVYGAEHLLRLFVKLPELLVHVNMAEETLKELQDNFVDILRFLRKNQSVLFVSTYKAVEEMEKKEG
As for B4, the binding result in test [2] is listed as “binds”.
